Patent US20050064430A1
These are yes or no findings as the source states them, for the method shown. For part of these data: Binding seen in cells or lysates may run through a third protein. Some entries that bind do so weakly or less than the wild type.

Experiments:
[1] = target: recombinant Rab3 GEP (from insect cells) (UniProt O08873); test: Western blotting (legend of FIG. 4)
[2] = target: recombinant Rab3 GEP (from insect cells) (UniProt O08873); test: conclusion from the bead binding assay and co-immunoprecipitation
[3] = target: recombinant Rab3 GEP (from insect cells) (UniProt O08873); test: recombinant Rab3 GEP incubated with recombinant rabconnectin-3β on antibody/protein A Sepharose beads; SDS-PAGE, Coomassie staining or Western blot

Measured: binding

recombinant rabconnectin-3β (pFastBac HTa rabconnectin-3β, baculovirus, High Five insect cells) (from UniProt Q9Y4E6 1-1490)
binds: all assays above
